For two molecules, binding results are on record in paper PMC10739977.

Chains of the proteins cited; added tags and fusions are not shown.
UniProt Q63528: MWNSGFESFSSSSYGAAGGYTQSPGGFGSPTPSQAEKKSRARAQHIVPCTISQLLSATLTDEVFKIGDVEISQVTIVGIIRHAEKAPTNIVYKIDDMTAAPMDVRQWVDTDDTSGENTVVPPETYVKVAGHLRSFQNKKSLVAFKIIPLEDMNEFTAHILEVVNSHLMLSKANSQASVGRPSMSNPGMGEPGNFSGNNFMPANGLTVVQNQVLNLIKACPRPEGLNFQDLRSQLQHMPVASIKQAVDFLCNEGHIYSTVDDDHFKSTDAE

For the assay, the target named is T1, Fc-tagged human Angptl3 (human) (UniProt Q9Y5C1).
T1 sequence: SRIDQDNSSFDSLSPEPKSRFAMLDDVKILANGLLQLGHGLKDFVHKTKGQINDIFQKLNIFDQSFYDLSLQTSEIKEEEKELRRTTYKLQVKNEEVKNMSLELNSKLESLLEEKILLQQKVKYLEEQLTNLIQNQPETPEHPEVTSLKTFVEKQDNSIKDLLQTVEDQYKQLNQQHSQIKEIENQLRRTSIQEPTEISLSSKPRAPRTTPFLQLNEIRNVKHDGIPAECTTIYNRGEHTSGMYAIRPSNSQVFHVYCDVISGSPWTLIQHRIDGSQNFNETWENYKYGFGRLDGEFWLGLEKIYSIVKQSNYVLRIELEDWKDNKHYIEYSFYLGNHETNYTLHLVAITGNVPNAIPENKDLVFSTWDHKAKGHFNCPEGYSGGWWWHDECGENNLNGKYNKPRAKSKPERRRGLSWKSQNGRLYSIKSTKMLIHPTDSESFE
The assay is described as follows: affinity purification with mass spectrometry; SILAC; extracts (about 4 mg) of light-labelled Fc and heavy-labelled Fc-Angptl3 McA cells incubated with protein-A beads at 4 °C overnight; lysis buffer 50 mM Tris-HCl pH 7.8, 150 mM NaCl, 1% NP-40, 0.1% sodium deoxycholate, 1 mM EDTA; two replicates.

Results are given in words; binding and its absence hold for the method and conditions named. In cells and extracts the contact can be indirect. Here binding means that the protein was enriched with, or labelled near, the bait; the list need not be complete. Where a sequence is shown, tags or fusion partners need not be part of it.

RPA2 (from UniProt Q63528 1-270): the binding result is recorded as “binds”.

B1: SmarcAL1 (SWI/SNF-related matrix-associated actin-dependent regulator of chromatin subfamily A-like protein 1) (protein, UniProt B4F769 1-910)
chain: MSLPLTEEQRKKIEENRQKALARRAEKLWAEQPQSTASGSSAARPSQCKQNSLLNLPAEPSKPEGHATISKGQNLNNSLPAAQRPHSSPCFQPSTAEEAKGLWKSEGKMSAACPNPSPPEVSNQQLLGSKSSEGHPQATQDTAASCPRPFPRDPKLEAKAGRPSTSGQSISDTFYALGEKTPKTDGRPAKALQTSPQKASCLRGMCLRTGDRFRVKIGYNKELIEVFKSLPSRRYDSFTKTWDFSMSDYRALMKAVERLSTVSLQPLEEVDGTGGQTSLPSAPSLTFVTGRCMLISRARFEVDIGYSEVVIALFKQMESRNYDPKTRKWNFLLEEHNKLIARSRELKQVQLDPLPKTLTLAFASQLEKTSLQSKADVPEADLSGVDAKLVSNLMPFQREGVSFAISKRGRLLLADDMGLGKTIQAICIAAFYRKEWPLLVVVPSSVRFTWEQAFLRWLPSLSPEDINVVVTGKGRLTAGLVNIVSFDLLSKLEKQLKTPFKVVIIDESHFLKNIKTARCRAAVPILKVAKRVILLSGTPAMSRPAELYTQIIAVKPTFFPQFHAFGLRYCDAKRLPWGWDYSGSSNLGELKLLLEEAVMLRRLKSDVLSQLPAKQRKMVVVNPGRISTRAKAALDAAAKEMTKDKTKQQQKEALLVFFNRTAEAKIPCVIEYILDLLESGREKFLVFAHHKVLLDAIAKELERKNVQHIRIDGSTPSADREDLCQQFQLSKGHTVAVLSITAANMGLTFSSADLVVFAELFWNPGVLIQAEDRVHRIGQTNSVGIHYLVAKGTADDYLWPLIQEKIKVLGEAGLSETNFSEMTEATDYLYKDPKQKTIYSLFQQSFEDDGNDMEFLEAAESFELGSTSGTSGNSSQELGDITDENALADSPPKKRRFEFFDNWDSFTSPF
Turning to B1, the binding entry was “binds”.
